According to PMC9667139:
Results are given in words; binding and its absence hold for the method and conditions named. In cells and extracts the contact can be indirect. Some results given as binding are weak or reduced against the parent protein; the word gives no strength.

Sequences of proteins named here, by UniProt entry; tags and fusion partners are left off.
UniProt Q8INR6: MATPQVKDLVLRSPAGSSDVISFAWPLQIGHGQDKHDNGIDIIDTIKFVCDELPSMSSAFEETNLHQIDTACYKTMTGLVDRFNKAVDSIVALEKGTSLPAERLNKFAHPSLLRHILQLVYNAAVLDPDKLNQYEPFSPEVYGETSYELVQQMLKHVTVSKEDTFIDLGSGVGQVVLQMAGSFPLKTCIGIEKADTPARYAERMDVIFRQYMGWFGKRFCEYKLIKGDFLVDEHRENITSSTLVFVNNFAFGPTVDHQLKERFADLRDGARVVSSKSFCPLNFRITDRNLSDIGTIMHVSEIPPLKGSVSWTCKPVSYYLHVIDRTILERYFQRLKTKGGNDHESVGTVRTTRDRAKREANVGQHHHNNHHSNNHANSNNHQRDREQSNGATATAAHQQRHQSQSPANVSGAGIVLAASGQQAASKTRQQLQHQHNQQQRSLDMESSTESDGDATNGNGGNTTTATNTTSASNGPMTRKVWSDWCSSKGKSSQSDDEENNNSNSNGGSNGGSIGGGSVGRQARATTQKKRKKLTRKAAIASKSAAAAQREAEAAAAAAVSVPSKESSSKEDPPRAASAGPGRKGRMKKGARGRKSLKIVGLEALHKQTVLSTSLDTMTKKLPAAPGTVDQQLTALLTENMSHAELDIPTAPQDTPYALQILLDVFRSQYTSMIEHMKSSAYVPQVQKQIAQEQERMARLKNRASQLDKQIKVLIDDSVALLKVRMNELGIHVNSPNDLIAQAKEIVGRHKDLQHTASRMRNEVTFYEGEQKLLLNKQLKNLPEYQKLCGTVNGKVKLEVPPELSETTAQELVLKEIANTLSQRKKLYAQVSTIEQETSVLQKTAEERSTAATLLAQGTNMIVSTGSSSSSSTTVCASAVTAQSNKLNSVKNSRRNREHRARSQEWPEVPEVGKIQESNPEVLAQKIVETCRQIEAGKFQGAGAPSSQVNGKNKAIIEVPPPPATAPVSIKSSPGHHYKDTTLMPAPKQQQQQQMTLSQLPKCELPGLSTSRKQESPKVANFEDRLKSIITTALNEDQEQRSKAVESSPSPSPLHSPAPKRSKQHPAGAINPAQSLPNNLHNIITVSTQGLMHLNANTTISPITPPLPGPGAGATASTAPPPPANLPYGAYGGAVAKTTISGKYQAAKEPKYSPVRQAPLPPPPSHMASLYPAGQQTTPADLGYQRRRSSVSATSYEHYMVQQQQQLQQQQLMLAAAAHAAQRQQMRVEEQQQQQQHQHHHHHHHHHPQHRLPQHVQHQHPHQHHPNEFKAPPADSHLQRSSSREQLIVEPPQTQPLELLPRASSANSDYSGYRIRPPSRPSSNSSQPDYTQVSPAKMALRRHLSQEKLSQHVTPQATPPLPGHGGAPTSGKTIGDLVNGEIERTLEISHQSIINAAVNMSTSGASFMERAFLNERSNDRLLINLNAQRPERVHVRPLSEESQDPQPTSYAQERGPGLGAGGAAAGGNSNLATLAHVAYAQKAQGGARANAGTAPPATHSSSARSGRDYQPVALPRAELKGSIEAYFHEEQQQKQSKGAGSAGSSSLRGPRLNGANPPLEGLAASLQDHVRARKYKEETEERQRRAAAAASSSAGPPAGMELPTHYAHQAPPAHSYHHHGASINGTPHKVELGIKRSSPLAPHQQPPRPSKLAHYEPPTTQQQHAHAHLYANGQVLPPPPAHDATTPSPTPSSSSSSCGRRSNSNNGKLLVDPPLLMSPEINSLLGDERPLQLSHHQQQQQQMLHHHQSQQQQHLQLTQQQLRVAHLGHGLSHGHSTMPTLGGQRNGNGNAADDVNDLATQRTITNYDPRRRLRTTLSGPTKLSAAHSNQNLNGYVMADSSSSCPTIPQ

Tests used:
[1] = molecular target: GST-H4_(1-34) H4R17A (not stated (human or Drosophila H4 cloned)) (UniProt P84040); assay: pull-down; GST-H4 tail on glutathione agarose beads incubated with Gpp-flag S2 cell lysate, 2 h at 4°C, 50 mM Tris-Cl pH 8.0, 150 mM NaCl; washed with modified RIPA buffer; bound Gpp-flag detected by anti-flag blot; only the target purified
[2] = molecular target: GST-H4_(1-34) H4R17E (not stated (human or Drosophila H4 cloned)) (UniProt P84040); assay: as above

With “Gpp-flag (grappa-flag; Gpp, Dot1 homologue in flies) (from UniProt Q8INR6 1-1848) (enzyme)” the binding [1] was “binds” and the binding [2] was “binds”.
